Measured values published in publication PMC4967827.
Results are given in words; binding and its absence hold for the method and conditions named. In cells and extracts the contact can be indirect. Some entries that bind do so weakly or less than the wild type. Sequences can lack the tags named with a protein.

By UniProt entry, the sequences of proteins in these tests, tags left out.
UniProt P0A9A6: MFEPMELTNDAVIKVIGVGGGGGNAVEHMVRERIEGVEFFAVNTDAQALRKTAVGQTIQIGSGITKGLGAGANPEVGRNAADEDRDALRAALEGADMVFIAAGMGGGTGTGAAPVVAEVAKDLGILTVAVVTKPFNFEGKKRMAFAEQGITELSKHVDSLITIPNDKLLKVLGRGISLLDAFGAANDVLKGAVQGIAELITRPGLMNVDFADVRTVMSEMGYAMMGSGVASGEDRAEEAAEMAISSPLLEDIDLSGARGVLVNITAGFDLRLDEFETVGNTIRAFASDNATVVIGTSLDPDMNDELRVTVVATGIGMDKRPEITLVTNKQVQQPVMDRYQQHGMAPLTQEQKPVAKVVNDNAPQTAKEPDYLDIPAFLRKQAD

How the values were obtained:
[1] = biological target: T1, MBP-fused DicB-ΔN13 (E. coli) (UniProt P09557); experiment: pull-down; proteins expressed separately; supernatants mixed and incubated 1 h, amylose column, maltose elution, SEC; SDS–PAGE, Coomassie (MBP–DicB–MBP and MBP–DicB truncation derivatives with MinC)
T1 sequence: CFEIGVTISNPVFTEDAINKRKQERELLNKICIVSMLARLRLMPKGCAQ

[2] = biological target: T2, MBP-fused DicB-ΔN7 (E. coli) (UniProt P09557); experiment: as above
T2 sequence: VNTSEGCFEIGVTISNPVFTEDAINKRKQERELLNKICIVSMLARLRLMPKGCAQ

[3] = biological target: T3, MBP-fused DicB-ΔN26 (E. coli) (UniProt P09557); experiment: as above
T3 sequence: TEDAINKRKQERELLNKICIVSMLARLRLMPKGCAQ

[4] = biological target: T4, MBP-fused DicB-ΔN6 (E. coli) (UniProt P09557); experiment: as above
T4 sequence: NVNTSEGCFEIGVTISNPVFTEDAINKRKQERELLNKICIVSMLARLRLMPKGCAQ

FtsZ (E. coli) = FtsZ (E. coli) (UniProt P0A9A6); experiment: pull-down; MBP–DicB (no tag) and FtsZ; same procedures except that the supernatant was loaded onto a nickel column; control without FtsZ; SDS–PAGE, Coomassie

Row | Binder | binding [1] | binding [2] | binding [3] | binding [4] | binding (FtsZ (E. coli))
1 | MinC (protein, UniProt P18196 1-231) MSNTPIELKGSSFTLSVVHLHEAEPKVIHQALEDKIAQAPAFLKHAPVVLNVSALEDPVNWSAMHKAVSATGLRVIGVSGCKDAQLKAEIEKMGLPILTEGKEKAPRPAPTPQAPAQNTTPVTKTRLIDTPVRSGQRIYAPQCDLIVTSHVSAGAELIADGNIHVYGMMRGRALAGASGDRETQIFCTNLMAELVSIAGEYWLSDQIPAEFYGKAARLQLVENALTVQPLN | binds | binds | binds | binds | 
2 | MBP–DicB lacking C-terminal His-tag (protein, UniProt P09557 1-62) MKTLLPNVNTSEGCFEIGVTISNPVFTEDAINKRKQERELLNKICIVSMLARLRLMPKGCAQ |  |  |  |  | no binding
